# In publication doi:10.1101/2023.04.17.537228:
# The chains behind the UniProt entries cited, without tags or fusion partners.
# UniProt Q7TQK4: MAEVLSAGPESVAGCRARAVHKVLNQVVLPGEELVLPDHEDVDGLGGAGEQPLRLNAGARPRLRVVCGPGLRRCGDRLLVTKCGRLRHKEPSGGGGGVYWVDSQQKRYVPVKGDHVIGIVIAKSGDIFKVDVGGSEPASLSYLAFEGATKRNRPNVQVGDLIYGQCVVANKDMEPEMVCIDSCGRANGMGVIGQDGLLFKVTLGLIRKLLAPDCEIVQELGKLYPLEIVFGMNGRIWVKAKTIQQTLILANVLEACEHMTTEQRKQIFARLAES
# UniProt Q8VBV3: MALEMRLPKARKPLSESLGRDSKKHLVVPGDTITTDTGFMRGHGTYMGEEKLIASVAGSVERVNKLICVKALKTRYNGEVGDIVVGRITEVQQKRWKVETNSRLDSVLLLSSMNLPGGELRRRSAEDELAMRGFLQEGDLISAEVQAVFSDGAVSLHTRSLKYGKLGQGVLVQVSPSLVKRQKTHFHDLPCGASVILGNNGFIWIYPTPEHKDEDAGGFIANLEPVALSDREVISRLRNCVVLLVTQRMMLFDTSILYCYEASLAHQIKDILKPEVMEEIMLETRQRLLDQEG
# UniProt Q9CRA8: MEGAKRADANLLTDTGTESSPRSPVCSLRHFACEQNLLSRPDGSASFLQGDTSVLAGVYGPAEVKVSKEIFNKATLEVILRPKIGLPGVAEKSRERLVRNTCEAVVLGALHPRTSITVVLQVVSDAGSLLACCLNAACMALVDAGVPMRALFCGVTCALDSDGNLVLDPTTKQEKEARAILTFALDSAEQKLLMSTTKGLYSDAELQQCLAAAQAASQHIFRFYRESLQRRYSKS
# UniProt Q8BTW3: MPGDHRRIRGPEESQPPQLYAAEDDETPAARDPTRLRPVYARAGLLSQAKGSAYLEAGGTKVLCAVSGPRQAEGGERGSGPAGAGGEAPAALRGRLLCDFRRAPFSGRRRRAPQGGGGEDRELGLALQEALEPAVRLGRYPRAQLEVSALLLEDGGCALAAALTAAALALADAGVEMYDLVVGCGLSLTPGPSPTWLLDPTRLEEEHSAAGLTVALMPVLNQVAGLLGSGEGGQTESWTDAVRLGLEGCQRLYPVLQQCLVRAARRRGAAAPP
# UniProt Q9D0M0: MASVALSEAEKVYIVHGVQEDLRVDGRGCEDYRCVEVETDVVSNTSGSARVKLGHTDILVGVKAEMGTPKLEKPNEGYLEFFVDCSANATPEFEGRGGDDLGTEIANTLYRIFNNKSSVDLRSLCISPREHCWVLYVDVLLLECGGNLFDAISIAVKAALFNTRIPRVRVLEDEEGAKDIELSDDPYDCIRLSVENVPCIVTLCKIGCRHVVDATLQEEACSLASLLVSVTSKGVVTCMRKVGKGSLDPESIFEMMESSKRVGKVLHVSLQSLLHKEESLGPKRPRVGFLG
# UniProt Q9JHI7: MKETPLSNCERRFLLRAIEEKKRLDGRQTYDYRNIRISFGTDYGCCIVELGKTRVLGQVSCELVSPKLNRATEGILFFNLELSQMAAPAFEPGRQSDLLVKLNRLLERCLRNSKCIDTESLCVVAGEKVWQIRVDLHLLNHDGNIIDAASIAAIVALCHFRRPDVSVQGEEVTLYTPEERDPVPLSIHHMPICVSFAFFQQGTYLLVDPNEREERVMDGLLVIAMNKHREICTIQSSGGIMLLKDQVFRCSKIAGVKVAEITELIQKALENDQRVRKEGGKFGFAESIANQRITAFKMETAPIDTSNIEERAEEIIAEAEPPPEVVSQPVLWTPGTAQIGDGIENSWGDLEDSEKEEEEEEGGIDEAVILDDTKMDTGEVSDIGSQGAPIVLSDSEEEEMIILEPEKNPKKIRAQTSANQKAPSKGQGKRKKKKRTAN
# UniProt Q80U78: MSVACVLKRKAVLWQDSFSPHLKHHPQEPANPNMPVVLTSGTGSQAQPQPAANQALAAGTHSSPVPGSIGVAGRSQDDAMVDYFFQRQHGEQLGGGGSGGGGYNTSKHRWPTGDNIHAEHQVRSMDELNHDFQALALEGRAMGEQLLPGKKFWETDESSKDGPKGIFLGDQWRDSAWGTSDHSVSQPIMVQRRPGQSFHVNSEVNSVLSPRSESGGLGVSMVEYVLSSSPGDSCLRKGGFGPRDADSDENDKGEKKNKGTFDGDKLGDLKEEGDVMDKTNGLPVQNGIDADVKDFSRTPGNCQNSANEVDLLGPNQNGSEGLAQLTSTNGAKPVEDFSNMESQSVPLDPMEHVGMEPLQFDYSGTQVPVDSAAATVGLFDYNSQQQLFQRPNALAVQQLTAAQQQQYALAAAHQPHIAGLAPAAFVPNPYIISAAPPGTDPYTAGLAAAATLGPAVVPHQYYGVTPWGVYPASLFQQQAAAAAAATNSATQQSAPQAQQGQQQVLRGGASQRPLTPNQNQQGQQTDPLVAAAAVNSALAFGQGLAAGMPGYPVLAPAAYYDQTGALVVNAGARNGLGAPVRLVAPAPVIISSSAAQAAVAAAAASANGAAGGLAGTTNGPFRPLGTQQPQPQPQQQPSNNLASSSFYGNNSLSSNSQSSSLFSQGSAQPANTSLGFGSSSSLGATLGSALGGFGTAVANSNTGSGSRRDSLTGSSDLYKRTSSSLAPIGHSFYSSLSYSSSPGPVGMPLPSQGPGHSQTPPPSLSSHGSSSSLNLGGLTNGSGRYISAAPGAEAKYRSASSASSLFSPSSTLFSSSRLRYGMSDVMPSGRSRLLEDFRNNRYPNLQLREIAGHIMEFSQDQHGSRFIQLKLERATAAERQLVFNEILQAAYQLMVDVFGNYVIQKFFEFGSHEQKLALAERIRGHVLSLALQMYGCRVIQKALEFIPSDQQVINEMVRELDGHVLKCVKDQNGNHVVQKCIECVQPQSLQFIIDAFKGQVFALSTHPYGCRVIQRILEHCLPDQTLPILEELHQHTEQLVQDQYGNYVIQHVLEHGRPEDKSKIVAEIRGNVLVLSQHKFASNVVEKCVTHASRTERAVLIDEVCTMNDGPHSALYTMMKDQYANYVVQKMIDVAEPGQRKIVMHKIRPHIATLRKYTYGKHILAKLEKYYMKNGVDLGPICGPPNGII
# UniProt Q80U58: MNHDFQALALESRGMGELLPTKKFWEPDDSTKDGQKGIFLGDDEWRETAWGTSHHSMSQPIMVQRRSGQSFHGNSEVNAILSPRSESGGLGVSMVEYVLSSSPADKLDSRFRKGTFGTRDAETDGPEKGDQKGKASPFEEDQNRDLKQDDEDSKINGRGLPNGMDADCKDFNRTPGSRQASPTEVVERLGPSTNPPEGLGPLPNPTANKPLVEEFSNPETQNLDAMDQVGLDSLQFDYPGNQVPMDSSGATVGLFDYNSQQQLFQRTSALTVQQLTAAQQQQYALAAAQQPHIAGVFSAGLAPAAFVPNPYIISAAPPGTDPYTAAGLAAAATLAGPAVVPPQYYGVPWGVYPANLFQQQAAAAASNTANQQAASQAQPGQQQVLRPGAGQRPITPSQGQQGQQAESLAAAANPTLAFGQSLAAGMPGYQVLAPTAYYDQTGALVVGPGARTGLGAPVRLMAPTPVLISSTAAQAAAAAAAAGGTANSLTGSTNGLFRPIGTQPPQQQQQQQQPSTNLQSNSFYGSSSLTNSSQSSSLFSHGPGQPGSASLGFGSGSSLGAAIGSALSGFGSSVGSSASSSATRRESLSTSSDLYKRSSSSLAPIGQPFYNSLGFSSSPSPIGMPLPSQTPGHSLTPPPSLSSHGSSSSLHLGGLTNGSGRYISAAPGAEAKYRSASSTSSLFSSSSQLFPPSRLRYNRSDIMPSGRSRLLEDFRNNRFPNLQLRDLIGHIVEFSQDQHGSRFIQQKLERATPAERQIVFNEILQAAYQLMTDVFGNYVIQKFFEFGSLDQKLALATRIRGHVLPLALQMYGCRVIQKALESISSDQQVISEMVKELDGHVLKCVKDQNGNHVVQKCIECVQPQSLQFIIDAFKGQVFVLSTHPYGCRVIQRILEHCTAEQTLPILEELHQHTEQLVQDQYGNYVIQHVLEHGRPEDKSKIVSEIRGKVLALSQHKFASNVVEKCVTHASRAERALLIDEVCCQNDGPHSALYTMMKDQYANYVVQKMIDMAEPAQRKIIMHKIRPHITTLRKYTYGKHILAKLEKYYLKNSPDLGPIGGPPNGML
# Results are given in words; binding and its absence hold for the method and conditions named. In cells and extracts the contact can be indirect. A yes stands for co-enrichment or nearness to the bait. Other partners may have been found.
# Target: myc-EXOSC3 (UniProt Q7TQK4)
# Assay: affinity purification with mass spectrometry
row,binding,Substance
1,binds,EXOSC2 (from UniProt Q8VBV3 1-293)
2,binds,EXOSC5 (from UniProt Q9CRA8 1-235)
3,binds,EXOSC6 (from UniProt Q8BTW3 1-273)
4,binds,EXOSC7 (from UniProt Q9D0M0 1-291)
5,binds,EXOSC9 (from UniProt Q9JHI7 1-438)
6,binds,PUM1 (from UniProt Q80U78 1-1189)
7,binds,PUM2 (from UniProt Q80U58 1-1066)
